Results from patent US6974814B2, “Neuropharmacological treatment of sleep-related breathing disorders” (The Board of Trustees of the University of Illinois, priority 1999, dated 2005).

System: spontaneous apneas
Conditions: REM sleep; 4.0 mg/kg intraperitoneal; vs saline

Nc1nc2ccc(OC(F)(F)F)cc2s1 [riluzole]
animals in which apnea expression decreased or remained the same: 5 of 7
